Measured values from patent US20190275058A1, “COMPOSITIONS AND METHODS FOR TREATING ADDICTION OR SUBSTANCE USE DISORDERS” (EMBERA NEUROTHERAPEUTICS, INC., priority 2016, published 2019).
At least one compound was matched to its structure with a doubt left. Some of these results come from one statement about several compounds together.

Tests used:
[1] = test system: adult male Wistar rats; test: Intravenous cocaine self-administration under a multiple, alternating schedule of food reinforcement and cocaine self-administration; type: in vivo, rat
[2] = test system: adult male Wistar rats; test: Cue-induced reinstatement of extinguished cocaine seeking; type: in vivo, rat; conditions: pretreatment, summary of the studies
Text: Training to self-administer cocaine: In one model, rats were exposed to alternating 15-minute periods of access to cocaine self-administration and food reinforcement. Food was used to control for potential nonspecific, ataxis effects of the drugs and combinations. […] The other preclinical model that has been used is the cue-induced reinstatement of extinguished cocaine seeking model of relapse. In this model, rats are trained to self-administer cocaine and the ability of conditioned cues in the environment to reinstate extinguished responding is assessed and taken as a measure of relapse.
Cue-induced Reinstatement of Extinguished Cocaine Seeking: The experiments described herein were designed to investigate whether or not drug combinations identified as effective in reducing cocaine self-administration would also block the ability of conditioned cues to reinstate extinguished cocaine-seeking behavior. Adult male Wistar rats were implanted with chronic jugular catheters and trained to self-administer cocaine (0.25 mg/kg/infusion) by pressing one of the response levers in the experimental chamber (i.e., the “active” or “cocaine” lever) under a fixed-ratio […] schedule of reinforcement during daily 2-hour sessions conducted 5 days per week. […]

[3] = test system: rats; conditions: pretreatment, literature; cited from earlier work
[4] = test system: male Wistar rats; test: Forced Swim Test (FST), animal model of depression; conditions: chronically treated groups, drug alone
[5] = pretreatment, summary of the studies

| Compound | cocaine self-administration [1, 5] | reinstatement of extinguished cocaine seeking [2] | cocaine self-administration [3] | cocaine self-administration as percentage of baseline ([1]; high dose, drug alone (FIG. 1B)) | cocaine self-administration ([1]; high dose, ip pretreatment, drug alone) | cocaine self-administration ([1]; low, ineffective dose, ip pretreatment, drug alone) | group means of immobility versus vehicle (tolerance) [4] |
| --- | --- | --- | --- | --- | --- | --- | --- |
| CNC1=Nc2ccc(Cl)cc2C(c2ccccc2)=[N+]([O-])C1 [chlordiazepoxide] | decrease cocaine self-administration | decrease | significantly decreased intravenous cocaine self-administration |  |  |  |  |
| O=C1Nc2ccc(Cl)cc2C(c2ccccc2)=NC1O (stereo not drawn) [oxazepam] | decrease cocaine self-administration | decrease |  | less than 50 % of baseline self-administration | reduced cocaine self-administration | did not significantly affect | equal to or exceeded the vehicle |
